Source: PubChem BioAssay AID602196 (INSERM, 2012)

Assay: 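Modifiers of cisplatin sensitivity in A549 cells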
Cell system: human A549 lung cancer cells
Knock-down reagent: siRNA pair against human genes
Duration: 48 h transfection before cisplatin; time from cisplatin to read-out not stated
Treatment: cisplatin at a dose killing half of control-siRNA cells; exact dose and duration not given
Measured: 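Cisplatin cell death as a shift from the 50% death seen with control siRNA; siRNAs toxic or growth-blocking alone scored 0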
Direction: two-siRNA summed score (-2 to +2): higher = both siRNAs protect from cisplatin killing; -2 means both sensitise; mean protection from cisplatin (shift in death): higher = protection from cisplatin killing
Call rule: 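Each siRNA scores 0 if harmful alone by LDH or WST-1, otherwise +1 if it reduces and -1 if it increases cisplatin killing; a gene is active when both siRNAs agree (sum +2 or -2)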
Calls: active = both siRNAs shift cisplatin killing the same way; inactive = no consistent shift, or siRNA harmful alone
In all, the deposit lists about 23,000 reagents; shown is a part drawn at random. In the full data, 455 (2%) are marked active. 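Active includes both protection and sensitisation; some change values fall well beyond the stated -50 to +50 range.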 Entries without a mark were called inactive. Not all columns of the deposit are shown. Not stated in the record: the amount of reagent.

With knock-down of LINC00691, the record shows two-siRNA summed score (-2 to +2) = 0; mean protection from cisplatin (shift in death) (%) = 8.3.
After knock-down of ZC3H8, the screen gave two-siRNA summed score (-2 to +2) = 0; mean protection from cisplatin (shift in death) (%) = 3.
Depletion of DDR1 resulted in: two-siRNA summed score (-2 to +2) = 0; mean protection from cisplatin (shift in death) (%) = -0.7.
Knock-down of LINC00052 gave: two-siRNA summed score (-2 to +2) = 0; mean protection from cisplatin (shift in death) (%) = 4.3.
Depletion of ATP8B1 gave: two-siRNA summed score (-2 to +2) = 0; mean protection from cisplatin (shift in death) (%) = 14.
Against RGL3 the deposit lists two-siRNA summed score (-2 to +2) = 0; mean protection from cisplatin (shift in death) (%) = 24.
For LOC440669 the deposit lists two-siRNA summed score (-2 to +2) = 2 (active); mean protection from cisplatin (shift in death) (%) = 24.
With knock-down of LOC389145, the screen gave two-siRNA summed score (-2 to +2) = -1; mean protection from cisplatin (shift in death) (%) = -0.5.
After knock-down of FZD5, the screen gave two-siRNA summed score (-2 to +2) = -1; mean protection from cisplatin (shift in death) (%) = -10.4.
After knock-down of LOC440692, the screen gave two-siRNA summed score (-2 to +2) = 0; mean protection from cisplatin (shift in death) (%) = 12.4.
Silencing of ARL14 came out at: two-siRNA summed score (-2 to +2) = 0; mean protection from cisplatin (shift in death) (%) = -9.
Silencing of SPIC resulted in: two-siRNA summed score (-2 to +2) = 0; mean protection from cisplatin (shift in death) (%) = 2.8.

Single entries from above:
Entry for LOC389145 in “two-siRNA summed score (-2 to +2)”: -1
For “mean protection from cisplatin (shift in death) (%)”, LOC440692 is entered as 12.4
